The record followed here is PMC6933376.

The chains behind the UniProt entries cited, without tags or fusion partners.
UniProt P08047: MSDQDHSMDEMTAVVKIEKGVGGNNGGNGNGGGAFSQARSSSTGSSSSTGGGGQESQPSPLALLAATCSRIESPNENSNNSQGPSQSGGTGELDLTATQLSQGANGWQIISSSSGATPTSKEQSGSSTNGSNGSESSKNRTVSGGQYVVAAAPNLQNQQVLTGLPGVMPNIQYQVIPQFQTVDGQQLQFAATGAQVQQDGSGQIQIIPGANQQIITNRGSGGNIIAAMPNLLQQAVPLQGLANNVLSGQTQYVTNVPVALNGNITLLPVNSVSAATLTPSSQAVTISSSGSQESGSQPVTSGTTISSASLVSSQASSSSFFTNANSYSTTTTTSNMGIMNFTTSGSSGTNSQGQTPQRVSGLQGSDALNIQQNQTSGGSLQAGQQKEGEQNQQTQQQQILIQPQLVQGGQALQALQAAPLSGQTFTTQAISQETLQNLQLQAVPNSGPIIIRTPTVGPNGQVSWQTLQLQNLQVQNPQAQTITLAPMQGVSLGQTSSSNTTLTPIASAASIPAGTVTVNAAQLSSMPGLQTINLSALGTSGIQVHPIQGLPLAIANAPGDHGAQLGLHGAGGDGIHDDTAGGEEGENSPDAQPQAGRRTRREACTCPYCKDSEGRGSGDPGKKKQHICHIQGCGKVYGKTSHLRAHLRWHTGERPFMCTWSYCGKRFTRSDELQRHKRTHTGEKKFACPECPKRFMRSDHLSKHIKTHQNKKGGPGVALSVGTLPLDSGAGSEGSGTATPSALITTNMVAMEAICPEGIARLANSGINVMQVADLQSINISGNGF

Residue numbers refer to the chain shown, from its start. Numbers in names are those of the source. Results are given in words; binding and its absence hold for the method and conditions named. In cells and extracts the contact can be indirect. Some entries that bind do so weakly or less than the wild type. For some of these results: Tags and fused reporters may be left off the sequences shown.

Assay [1] has as its target Sp1 transcription factor (human (endogenous in HUVECs)) (UniProt P08047). Description: co-IP; HUVECs infected with lentivirus expressing vector control, GFP-NLS-BMX or GFP-NES-BMX; lysates in RIPA buffer, Protein A/G magnetic beads, 4°C overnight; precipitating antibody (anti-GFP or anti-Sp1) not told for this panel.
For assay [2] the target is unchanged. Description: co-IP; HUVECs infected with BMX-WT or BMX-K445R lentivirus; nuclear fractions; immunoprecipitation with anti-Sp1 (IgG as control), immunoblot with anti-BMX, anti-BMXpY566, anti-Sp1 and anti-pY.

B1: GFP-NES-BMX (cytoplasm-localized BMX) (enzyme, UniProt P51813 1-675)
chain: LSPSLSPLSLMDTKSILEELLLKRSQQKKKMSPNNYKERLFVLTKTNLSYYEYDKMKRGSRKGSIEIKKIRCVEKVNLEEQTPVERQYPFQIVYKDGLLYVYASNEESRSQWLKALQKEIRGNPHLLVKYHSGFFVDGKFLCCQQSCKAAPGCTLWEAYANLHTAVNEEKHRVPTFPDRVLKIPRAVPVLKMDAPSSSTTLAQYDNESKKNYGSQPPSSSTSLAQYDSNSKKIYGSQPNFNMQYIPREDFPDWWQVRKLKSSSSSEDVASSNQKERNVNHTTSKISWEFPESSSSEEEENLDDYDWFAGNISRSQSEQLLRQKGKEGAFMVRNSSQVGMYTVSLFSKAVNDKKGTVKHYHVHTNAENKLYLAENYCFDSIPKLIHYHQHNSAGMITRLRHPVSTKANKVPDSVSLGNGIWELKREEITLLKELGSGQFGVVQLGKWKGQYDVAVKMIKEGSMSEDEFFQEAQTMMKLSHPKLVKFYGVCSKEYPIYIVTEYISNGCLLNYLRSHGKGLEPSQLLEMCYDVCEGMAFLESHQFIHRDLAARNCLVDRDLCVKVSDFGMTRYVLDDQYVSSVGTKFPVKWSAPEVFHYFKYSSKSDVWAFGILMWEVFSLGKQPYDLYDNSQVVLKVSQGHRLYRPHLASDTIYQIMYSCWHELPEKRPTFQQLLSSIEPLREKDKH
Take B1: in assay [1], the binding result is reported as “no binding”.

B2: wild-type BMX (bone marrow kinase in the X chromosome) (enzyme, UniProt P51813 1-675)
chain: MDTKSILEELLLKRSQQKKKMSPNNYKERLFVLTKTNLSYYEYDKMKRGSRKGSIEIKKIRCVEKVNLEEQTPVERQYPFQIVYKDGLLYVYASNEESRSQWLKALQKEIRGNPHLLVKYHSGFFVDGKFLCCQQSCKAAPGCTLWEAYANLHTAVNEEKHRVPTFPDRVLKIPRAVPVLKMDAPSSSTTLAQYDNESKKNYGSQPPSSSTSLAQYDSNSKKIYGSQPNFNMQYIPREDFPDWWQVRKLKSSSSSEDVASSNQKERNVNHTTSKISWEFPESSSSEEEENLDDYDWFAGNISRSQSEQLLRQKGKEGAFMVRNSSQVGMYTVSLFSKAVNDKKGTVKHYHVHTNAENKLYLAENYCFDSIPKLIHYHQHNSAGMITRLRHPVSTKANKVPDSVSLGNGIWELKREEITLLKELGSGQFGVVQLGKWKGQYDVAVKMIKEGSMSEDEFFQEAQTMMKLSHPKLVKFYGVCSKEYPIYIVTEYISNGCLLNYLRSHGKGLEPSQLLEMCYDVCEGMAFLESHQFIHRDLAARNCLVDRDLCVKVSDFGMTRYVLDDQYVSSVGTKFPVKWSAPEVFHYFKYSSKSDVWAFGILMWEVFSLGKQPYDLYDNSQVVLKVSQGHRLYRPHLASDTIYQIMYSCWHELPEKRPTFQQLLSSIEPLREKDKH
For the molecule B2, the binding result in assay [2] was “binds”.

B3: kinase-dead mutant BMX-K445R (enzyme, UniProt P51813 1-675)
chain: B2 chain with K445R
With B3, the binding result in assay [2] is given as “no binding”.

B4: GFP-NLS-BMX (nuclear-targeted BMX) (enzyme, UniProt P51813 1-675)
chain: PKKKRKVMDTKSILEELLLKRSQQKKKMSPNNYKERLFVLTKTNLSYYEYDKMKRGSRKGSIEIKKIRCVEKVNLEEQTPVERQYPFQIVYKDGLLYVYASNEESRSQWLKALQKEIRGNPHLLVKYHSGFFVDGKFLCCQQSCKAAPGCTLWEAYANLHTAVNEEKHRVPTFPDRVLKIPRAVPVLKMDAPSSSTTLAQYDNESKKNYGSQPPSSSTSLAQYDSNSKKIYGSQPNFNMQYIPREDFPDWWQVRKLKSSSSSEDVASSNQKERNVNHTTSKISWEFPESSSSEEEENLDDYDWFAGNISRSQSEQLLRQKGKEGAFMVRNSSQVGMYTVSLFSKAVNDKKGTVKHYHVHTNAENKLYLAENYCFDSIPKLIHYHQHNSAGMITRLRHPVSTKANKVPDSVSLGNGIWELKREEITLLKELGSGQFGVVQLGKWKGQYDVAVKMIKEGSMSEDEFFQEAQTMMKLSHPKLVKFYGVCSKEYPIYIVTEYISNGCLLNYLRSHGKGLEPSQLLEMCYDVCEGMAFLESHQFIHRDLAARNCLVDRDLCVKVSDFGMTRYVLDDQYVSSVGTKFPVKWSAPEVFHYFKYSSKSDVWAFGILMWEVFSLGKQPYDLYDNSQVVLKVSQGHRLYRPHLASDTIYQIMYSCWHELPEKRPTFQQLLSSIEPLREKDKH
On to B4, for which the binding result in assay [1] is “binds”.
